Experimental data from PubChem BioAssay AID504444 (National Center for Advancing Translational Sciences (NCATS), 2011).
Out of some 360,000 compounds screened, about 7,500 (2.1%) were called active. This list was built around the results that the source calls inconclusive (neither active nor inactive); the mix of calls is not that of the screen. Calls follow the shape of the dose curve; as a rule, active = well fitted inhibition curve with a large enough effect; inconclusive = small, poorly fitted or top-dose-only effect, or effect the other way; inactive = flat fitted curve, though single readings scatter. Potencies of inconclusive entries are doubtful fits and often do not repeat.

Test: Nrf2 qHTS screen for inhibitors; also: nearly all actives have a fitted effect of over 60% in size
Conditions: A549 ARE-Fluc reporter, luciferase luminescence, 18-24 h; series mostly up to 46 µM
In short: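 Reporter: ARE-Fluc in A549. Exposure: 18-24 h, 37 °C, 5% CO2, 5% FBS OPTI-MEM. Readouts: fluorescent cytotoxicity (CellTiter-Fluor), then luminescent Nrf2 signal after BugLite.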
Potency is read from the fitted curve at half-maximal effect.

| Structure (SMILES) | Potency |
| --- | --- |
| CC(=O)NCCc1nc2cc(NC(=O)c3ccc([N+](=O)[O-])cc3)ccc2n1C | inconclusive: 5.17 µM [activator, partial curve] |
| O=C(CSCc1ccccc1Cl)Nc1ccc(C(=O)O)cc1 | inconclusive: 8.2 µM [falling, partial curve, poor fit] |
| COc1ccc2[nH]c(C(=O)O)c(CCN3C(=O)c4ccc(C(=O)O)cc4C3=O)c2c1 | inconclusive: 20.6 µM [activator, single point] |
| CCOC(=O)c1c(NC(=O)CSc2cccc[n+]2[O-])sc(C(=O)Nc2ccccc2)c1C | inconclusive: 4.11 µM [activator, single point] |
| O=C(NCC(c1cccnc1)N1CCN(c2ccccc2F)CC1)c1ccc(F)cc1 (stereo unspecified) | inactive |
| COc1ccc(C(C(=O)NC2CCCCC2)N(C(=O)c2sc(C)nc2C)c2ccccc2C)cc1 (stereo unspecified) | inconclusive: 25.9 µM [falling, single point] |
| C[C@H](CO)N1C[C@H](C)[C@@H](CN(C)Cc2ccc(Oc3ccccc3)cc2)Oc2c(NC(=O)C3CC3)cccc2C1=O | active: 23.1 µM |
| CCOC(=O)c1cc2c(C)n(-c3ccc(C)cc3)c(C)c2ccc1=O | inconclusive: 18.4 µM [falling, single point] |
| Cc1cc(C(=O)NC2CCCc3c2cnn3-c2ccc(C(C)(C)C)cc2)n[nH]1 (stereo unspecified) | active: 4.61 µM |
| CC(NC(=O)COC(=O)c1cn(-c2ccccc2)nc1-c1cccs1)c1ccccc1 (stereo unspecified) | inconclusive: 18.4 µM [falling, single point] |
| CC(=O)OCCn1c(C)[n+](CCOC(C)=O)c2cc(Cl)c(Cl)cc21 | inactive |
| O=C(O)CCN=Cc1c(O)c2ccccc2oc1=O | inconclusive: 25.9 µM [falling, partial curve, poor fit] |
| CC(C)(C)NC(=S)N/N=C/c1cc(Br)c(O)c(Br)c1 | inconclusive: 29.1 µM [falling, single point] |
| CN(C)c1ccc(C(=S)NC2CCCCC2)cc1 | inconclusive: 20.6 µM [activator, single point] |
| O=C(C(Br)=Cc1ccccc1)c1ccccc1 | inactive |
| CCc1nnc(NC(=O)CCC(=O)N2CCN(Cc3ccc(OC)c(F)c3)CC2)s1 | inconclusive: 11.6 µM [falling, partial curve] |
| Clc1ccc(-c2nnc(N3CCCC3)nn2)cc1 | inconclusive: 8.2 µM [activator, partial curve] |
| Cc1sc2nc(SCC(=O)N3CC(C)OC(C)C3)n(C)c(=O)c2c1C (stereo unspecified) | inconclusive: 18.4 µM [falling, partial curve, poor fit] |
| Cc1cccc(Nc2nc3c(s2)CCCC3)c1 | inconclusive: 10.3 µM [activator, partial curve] |
| CCn1cc(C(=O)NCCc2ccccc2)c(=O)c2cc(S(=O)(=O)N3CCCCCC3)ccc21 | inconclusive: 23.1 µM [falling, single point] |
| Cc1nnc(NC(=O)CCC(=O)N2CCN(CCOc3cccc4ccccc34)CC2)s1 | inconclusive: 23.1 µM [falling, single point] |
| Cc1nn(C(C)C(=O)N2CCN(c3ccc(F)cc3)CC2)c(=O)c2c1sc1ccccc12 (stereo unspecified) | inconclusive: 20.6 µM [activator, single point] |

| Structure (SMILES) | Potency |
| --- | --- |
| C=CCn1c(SCC(=O)O)nc2sc(CC)cc2c1=O | inactive |
| Cc1nc(NCc2ccco2)c(C#N)c2c1COC(C)(C)C2 | inactive |
| Cc1nc2ccc(NS(=O)(=O)c3c(C)c(C)cc(C)c3C)cc2s1 | active: 14.6 µM |
| COc1cc2cc(CN(CCc3cccc(C)c3)C(=S)NCCCN3CCOCC3)c(=O)[nH]c2cc1OC | inactive |
| CC[n+]1c(/C=C/N(C)c2ccccc2)oc2ccc(F)cc21 | active: 6.51 µM |
| COc1ccc2nc(SCc3cccc(C)c3)nc(C)c2c1 | inactive |
| O=C(CNC(=O)c1ccc(F)cc1)N/N=C/c1cc(Br)ccc1OC(=O)/C=C/c1ccco1 | inactive |
| COc1ccc(C(=O)Nc2nc3cc4c(cc3s2)OCCO4)c(OC)c1 | active: 20.6 µM |
| COC(=O)c1sccc1NC(=O)c1c(Cl)cccc1Cl | inconclusive: 20.6 µM [falling, single point] |
| Cc1ccc(C(=O)Nc2ccc(Cl)cc2C)c(Cl)c1 | inconclusive: 11.6 µM [activator, partial curve] |
| CN(CC(=O)Nc1cccc(F)c1)C(=O)c1csc2c1CCCC2 | inconclusive: 18.4 µM [falling, partial curve, poor fit] |
| CC(C)C(c1nnnn1Cc1ccccc1)N(Cc1ccco1)Cc1cccs1 (stereo unspecified) | inconclusive: 25.9 µM [falling, partial curve] |
| COc1ccc(/C=C2\SC(c3ccc(C)cc3)=NC2=O)cc1OC | active: 16.4 µM |
| CCOC(=O)NC(=O)/C(C#N)=C\Nc1ccc(Cl)cc1Cl | inconclusive: 20.6 µM [activator, partial curve] |
| O=C(Nc1cccc(Cl)c1)N1CCN(Cc2ccccc2)CC1 | inconclusive: 10.3 µM [activator, partial curve, poor fit] |
| O=C(CCCC(=O)NC1CCCCC1)Nc1ccc([N+](=O)[O-])cc1 | inconclusive: 20.6 µM [falling, partial curve, poor fit] |
| COCCNC(=O)CN1CCC(n2c(C)nc3cc(C(F)(F)F)ccc32)CC1 | inconclusive: 14.6 µM [falling, partial curve, poor fit] |
| Cc1ccc2c(CC(=O)Nc3ccc(S(=O)(=O)N4CCCCC4C)cc3)coc2c1C (stereo unspecified) | inconclusive: 29.1 µM [falling, single point] |
| CCc1ccc2ncc3c(-c4ccc(F)cc4)nn(CC(=O)NC4CCCCC4)c3c2c1 | active: 1.64 µM |
| CC(C)C[C@H](NC(=O)c1nc[nH]c1C(=O)NC(c1ccccc1)c1ccccc1)C(=O)OCc1ccccc1 | inconclusive: 29.1 µM [falling, single point] |
| COc1cccc(C2c3c(-c4cc(Cl)c(C)cc4O)n[nH]c3C(=O)N2Cc2cccnc2)c1 (stereo unspecified) | inconclusive: 6.51 µM [activator, single point] |
| CC(C)(C)NC(=O)C(=O)NN=C1CCCCCCC1 | inconclusive: 29.1 µM [activator, partial curve, poor fit] |

| Structure (SMILES) | Potency |
| --- | --- |
| CCSc1ccccc1C(=O)N1CCN(c2ccc([N+](=O)[O-])cc2)CC1 | inconclusive: 20.6 µM [falling, single point] |
| N#C/C(=C\c1ccc(Cl)cc1)c1n[nH]c(Cn2cncn2)n1 | inconclusive: 32.6 µM [falling, single point] |
| CNC(=O)C1CCN(S(=O)(=O)c2c(C)noc2/C=C/c2cccc(OC)c2)CC1 | inconclusive: 6.51 µM [falling, single point] |
| CN(C)c1ccc(CNC(=O)Cc2ccc(NC(=O)N3CCCCc4ccccc43)cc2)cc1 | inconclusive: 6.51 µM [falling, single point] |
| CCOC(=O)c1oc2ccc(S(=O)(=O)n3nc(-c4ccc(OC)cc4)cc3N)cc2c1C | inconclusive: 29.1 µM [falling, single point] |
| COc1ccc(N2CCN(CCCNC(=O)c3nnc(Cc4ccc(F)cc4)o3)CC2)cc1 | inconclusive: 18.4 µM [activator, single point] |
| COc1cc(C(=O)Nc2cc3c(cc2N2CCCCC2)n(C)c(=O)n3C)cc(OC)c1OC | inconclusive: 18.4 µM [falling, single point] |
| CC(C)CN(C(=O)COC(=O)c1ccc2c(c1)NC(=O)CS2)C1CCS(=O)(=O)C1 (stereo unspecified) | inconclusive: 29.1 µM [activator, single point] |
| COc1ccc(Nc2nc(-c3cccc([N+](=O)[O-])c3)nc3ccccc23)cc1 | inconclusive: 29.1 µM [falling, single point] |
| CCCC1(C)Nc2ccccc2-c2nc3ccccc3n21 (stereo unspecified) | inactive |
| O=C(Nc1ccc(OC(F)(F)F)cc1)C1CCCN(C(=O)c2ccc(Cl)cc2)C1 (stereo unspecified) | inconclusive: 32.6 µM [falling, single point] |
| COc1ccc(-c2nnc(SCC3CCCO3)n2C)cc1 (stereo unspecified) | inconclusive: 29.1 µM [activator, partial curve, poor fit] |
| O=C(NCCCN1CCN(c2cccc(Cl)c2)CC1)c1nc(-c2ccncc2)no1 | inconclusive: 14.6 µM [falling, partial curve, poor fit] |
| COc1ccc(C)cc1NC(=O)CNC(=O)[C@@H]1Cc2ccccc2CN1 | inactive |
| O=C(/C=C/Nc1ccc(S(=O)(=O)Nc2cnc3ccccc3n2)cc1)c1ccccc1 | inconclusive: 23.1 µM [activator, single point] |
| CC(=O)N1c2ccc(S(=O)(=O)N3CCC(C(=O)Nc4cccc(Cl)c4C)CC3)cc2CC1C (stereo unspecified) | inconclusive: 29.1 µM [falling, single point] |
| N#CC(C#N)=C1C=C2C=C(N3CCCCCC3)CCC2CC1 (stereo unspecified) | inconclusive: 23.1 µM [falling, single point] |
| O=C(Nc1ccc(CN2CCOCC2)cc1)c1ccc(Cl)cc1 | inconclusive: 32.6 µM [falling, single point] |
| CC(Oc1ccc(Br)cc1)C(=O)Nc1ccncc1 (stereo unspecified) | active: 8.2 µM |
| Cc1ccc(NC(=O)c2ccc(CSc3nnnn3C)cc2)cc1 | inconclusive: 3.26 µM [activator, partial curve] |
| CC1CC(Nc2ccccc2)c2ccccc2N1C(=O)c1cccnc1 (stereo unspecified) | inconclusive: 18.4 µM [falling, single point] |
| COC(=O)c1cc(OC)c(OC)cc1NC(=O)c1csc(C)c1 | inconclusive: 5.17 µM [falling, partial curve, poor fit] |

Arranged by length of the SMILES (largest number first): part of the list above

| Structure (SMILES) | Potency |
| --- | --- |
| CC(=O)N1c2ccc(S(=O)(=O)N3CCC(C(=O)Nc4cccc(Cl)c4C)CC3)cc2CC1C (stereo unspecified) | inconclusive: 29.1 µM [falling, single point] |
| CC(C)CN(C(=O)COC(=O)c1ccc2c(c1)NC(=O)CS2)C1CCS(=O)(=O)C1 (stereo unspecified) | inconclusive: 29.1 µM [activator, single point] |
| COc1cc(C(=O)Nc2cc3c(cc2N2CCCCC2)n(C)c(=O)n3C)cc(OC)c1OC | inconclusive: 18.4 µM [falling, single point] |
| CN(C)c1ccc(CNC(=O)Cc2ccc(NC(=O)N3CCCCc4ccccc43)cc2)cc1 | inconclusive: 6.51 µM [falling, single point] |
| O=C(/C=C/Nc1ccc(S(=O)(=O)Nc2cnc3ccccc3n2)cc1)c1ccccc1 | inconclusive: 23.1 µM [activator, single point] |
| COc1ccc(Nc2nc(-c3cccc([N+](=O)[O-])c3)nc3ccccc23)cc1 | inconclusive: 29.1 µM [falling, single point] |
| CCSc1ccccc1C(=O)N1CCN(c2ccc([N+](=O)[O-])cc2)CC1 | inconclusive: 20.6 µM [falling, single point] |
| COc1ccc(C)cc1NC(=O)CNC(=O)[C@@H]1Cc2ccccc2CN1 | inactive |
| N#C/C(=C\c1ccc(Cl)cc1)c1n[nH]c(Cn2cncn2)n1 | inconclusive: 32.6 µM [falling, single point] |
| CC1CC(Nc2ccccc2)c2ccccc2N1C(=O)c1cccnc1 (stereo unspecified) | inconclusive: 18.4 µM [falling, single point] |
| Cc1ccc(NC(=O)c2ccc(CSc3nnnn3C)cc2)cc1 | inconclusive: 3.26 µM [activator, partial curve] |
| CCCC1(C)Nc2ccccc2-c2nc3ccccc3n21 (stereo unspecified) | inactive |
| CC(Oc1ccc(Br)cc1)C(=O)Nc1ccncc1 (stereo unspecified) | active: 8.2 µM |
